± gives the standard deviation of the averaged measurements. Differences between knockout arms are mostly noise.
Tested on: MDA-MB-231
Assay: relative cell number vs DMSO control (72 h) (% of DMSO); higher = less growth inhibition (more cells)
Procedure: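 QMAP-Seq: a pool of 5 breast cancer cell lines (ZR-75-1, SKBR3, HCC-38, MDA-MB-231, BT-20), each carrying 12 doxycycline-inducible Cas9 sgRNA perturbations (11 knockouts plus non-targeting sgNT), was treated with compounds for 72 h at four 10-fold doses (10 nM-10 uM or 1 nM-1 uM range). Barcodes were amplified and sequenced, and cell number was interpolated from 293T spike-in standard curves. The result is expressed as % of the median of DMSO wells. Two biological replicates.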

CC[C@@]1(O)C(=O)OCc2c1cc1n(c2=O)Cc2cc3c(CN(C)C)c(O)ccc3nc2-1 [Topotecan]
Settings	relative cell number
sgRNA knockout: sgATF3, 10 nM	71.7 ± 18
sgRNA knockout: sgATF3, 100 nM	22.8 ± 1.6
sgRNA knockout: sgATF3, 1000 nM	11.2 ± 0.81
sgRNA knockout: sgATF3, 10000 nM	7.9 ± 3.2
sgRNA knockout: sgATF4, 10 nM	84.8 ± 54
sgRNA knockout: sgATF4, 100 nM	26.2 ± 16
sgRNA knockout: sgATF4, 1000 nM	16.1 ± 4.7
sgRNA knockout: sgATF4, 10000 nM	8.85 ± 4.8
sgRNA knockout: sgATF6, 10 nM	86.3 ± 14
sgRNA knockout: sgATF6, 100 nM	20.6 ± 8.5
sgRNA knockout: sgATF6, 1000 nM	19.1 ± 10
sgRNA knockout: sgATF6, 10000 nM	8.65 ± 4.3
sgRNA knockout: sgATG7, 10 nM	75.2 ± 19
sgRNA knockout: sgATG7, 100 nM	22.4 ± 3.2
sgRNA knockout: sgATG7, 1000 nM	14.6 ± 1.3
sgRNA knockout: sgATG7, 10000 nM	5.38 ± 0.56
sgRNA knockout: sgERN1, 10 nM	74.5 ± 27
sgRNA knockout: sgERN1, 100 nM	24.9 ± 4.1
sgRNA knockout: sgERN1, 1000 nM	16.3 ± 0.22
sgRNA knockout: sgERN1, 10000 nM	8.99 ± 0.71
sgRNA knockout: sgHSF1, 10 nM	67.4 ± 16
sgRNA knockout: sgHSF1, 100 nM	20.9 ± 2.8
sgRNA knockout: sgHSF1, 1000 nM	17.8 ± 8
sgRNA knockout: sgHSF1, 10000 nM	10.1 ± 1.1
sgRNA knockout: sgHSF2, 10 nM	74.1 ± 17
sgRNA knockout: sgHSF2, 100 nM	21.4 ± 5.5
sgRNA knockout: sgHSF2, 1000 nM	18.3 ± 0.93
sgRNA knockout: sgHSF2, 10000 nM	4.6 ± 2.9
sgRNA knockout: sgKEAP1, 10 nM	72 ± 28
sgRNA knockout: sgKEAP1, 100 nM	26.5 ± 3.8
sgRNA knockout: sgKEAP1, 1000 nM	13.3 ± 0.23
sgRNA knockout: sgKEAP1, 10000 nM	8.94 ± 2.5
sgRNA knockout: sgNFE2L2, 10 nM	65.4 ± 15
sgRNA knockout: sgNFE2L2, 100 nM	22.1 ± 1.6
sgRNA knockout: sgNFE2L2, 1000 nM	12.7 ± 3.7
sgRNA knockout: sgNFE2L2, 10000 nM	9.58 ± 1.5
sgRNA knockout: sgSLC35F2, 10 nM	69.5 ± 11
sgRNA knockout: sgSLC35F2, 100 nM	22.2 ± 7.1
sgRNA knockout: sgSLC35F2, 1000 nM	14.8 ± 4
sgRNA knockout: sgSLC35F2, 10000 nM	9.15 ± 2.5
sgRNA knockout: sgXBP1, 10 nM	81.56 ± 0.26
sgRNA knockout: sgXBP1, 100 nM	26.5 ± 3
sgRNA knockout: sgXBP1, 1000 nM	15.2 ± 1.1
sgRNA knockout: sgXBP1, 10000 nM	5.8 ± 2.2

O=C(c1cc(Cc2n[nH]c(=O)c3ccccc23)ccc1F)N1CCN(C(=O)C2CC2)CC1 [Olaparib]
Settings	relative cell number
sgRNA knockout: sgATF3, 10 nM	85.5 ± 6.4
sgRNA knockout: sgATF3, 100 nM	86.6 ± 24
sgRNA knockout: sgATF3, 1000 nM	104 ± 0.52
sgRNA knockout: sgATF3, 10000 nM	56.2 ± 3.1
sgRNA knockout: sgATF4, 10 nM	91.6 ± 6.5
sgRNA knockout: sgATF4, 100 nM	100 ± 6.9
sgRNA knockout: sgATF4, 1000 nM	76.6 ± 8.1
sgRNA knockout: sgATF4, 10000 nM	64.2 ± 18
sgRNA knockout: sgATF6, 10 nM	88.6 ± 18
sgRNA knockout: sgATF6, 100 nM	93.5 ± 18
sgRNA knockout: sgATF6, 1000 nM	81.2 ± 26
sgRNA knockout: sgATF6, 10000 nM	80.2 ± 21
sgRNA knockout: sgATG7, 10 nM	100 ± 9.8
sgRNA knockout: sgATG7, 100 nM	84.6 ± 12
sgRNA knockout: sgATG7, 1000 nM	77.5 ± 7
sgRNA knockout: sgATG7, 10000 nM	71.6 ± 5.1
sgRNA knockout: sgERN1, 10 nM	103 ± 2.2
sgRNA knockout: sgERN1, 100 nM	97.7 ± 4.7
sgRNA knockout: sgERN1, 1000 nM	81.4 ± 33
sgRNA knockout: sgERN1, 10000 nM	64.9 ± 14
sgRNA knockout: sgHSF1, 10 nM	109 ± 40
sgRNA knockout: sgHSF1, 100 nM	86.8 ± 8.3
sgRNA knockout: sgHSF1, 1000 nM	55.8 ± 28
sgRNA knockout: sgHSF1, 10000 nM	69.5 ± 19
sgRNA knockout: sgHSF2, 10 nM	112 ± 2.7
sgRNA knockout: sgHSF2, 100 nM	82.1 ± 4.2
sgRNA knockout: sgHSF2, 1000 nM	96.2 ± 26
sgRNA knockout: sgHSF2, 10000 nM	78.2 ± 4.5
sgRNA knockout: sgKEAP1, 10 nM	101 ± 1.1
sgRNA knockout: sgKEAP1, 100 nM	81.1 ± 25
sgRNA knockout: sgKEAP1, 1000 nM	90.1 ± 18
sgRNA knockout: sgKEAP1, 10000 nM	74.8 ± 2.9
sgRNA knockout: sgNFE2L2, 10 nM	76.1 ± 9.8
sgRNA knockout: sgNFE2L2, 100 nM	91.5 ± 29
sgRNA knockout: sgNFE2L2, 1000 nM	77.1 ± 8.5
sgRNA knockout: sgNFE2L2, 10000 nM	73 ± 24
sgRNA knockout: sgSLC35F2, 10 nM	115 ± 9.3
sgRNA knockout: sgSLC35F2, 100 nM	81.8 ± 26
sgRNA knockout: sgSLC35F2, 1000 nM	104 ± 6.6
sgRNA knockout: sgSLC35F2, 10000 nM	73.2 ± 22
sgRNA knockout: sgXBP1, 10 nM	78.8 ± 30
sgRNA knockout: sgXBP1, 100 nM	112 ± 5
sgRNA knockout: sgXBP1, 1000 nM	81.7 ± 14
sgRNA knockout: sgXBP1, 10000 nM	58.7 ± 12

O=C1c2c(O)ccc(O)c2C(=O)c2c(NCCNCCO)ccc(NCCNCCO)c21 [Mitoxantrone]
Settings	relative cell number
sgRNA knockout: sgATF3, 10 nM	37.3 ± 7.2
sgRNA knockout: sgATF3, 100 nM	16.5 ± 5.1
sgRNA knockout: sgATF3, 1000 nM	8.86 ± 3.9
sgRNA knockout: sgATF3, 10000 nM	8.06 ± 4.4
sgRNA knockout: sgATF4, 10 nM	31.5 ± 16
sgRNA knockout: sgATF4, 100 nM	21.5 ± 6.8
sgRNA knockout: sgATF4, 1000 nM	13.9 ± 2.3
sgRNA knockout: sgATF4, 10000 nM	9.61 ± 5.1
sgRNA knockout: sgATF6, 10 nM	26.7 ± 8
sgRNA knockout: sgATF6, 100 nM	15.8 ± 5.5
sgRNA knockout: sgATF6, 1000 nM	9.33 ± 4.8
sgRNA knockout: sgATF6, 10000 nM	6.27 ± 5.6
sgRNA knockout: sgATG7, 10 nM	29.1 ± 9.5
sgRNA knockout: sgATG7, 100 nM	19.9 ± 7.2
sgRNA knockout: sgATG7, 1000 nM	7 ± 0.95
sgRNA knockout: sgATG7, 10000 nM	6.48 ± 2
sgRNA knockout: sgERN1, 10 nM	26.9 ± 8.4
sgRNA knockout: sgERN1, 100 nM	14.9 ± 3.6
sgRNA knockout: sgERN1, 1000 nM	6.36 ± 3.3
sgRNA knockout: sgERN1, 10000 nM	9.18 ± 4.3
sgRNA knockout: sgHSF1, 10 nM	29.37 ± 0.25
sgRNA knockout: sgHSF1, 100 nM	12.4 ± 2.7
sgRNA knockout: sgHSF1, 1000 nM	8.26 ± 0.7
sgRNA knockout: sgHSF1, 10000 nM	9.11 ± 5.2
sgRNA knockout: sgHSF2, 10 nM	34.7 ± 2.2
sgRNA knockout: sgHSF2, 100 nM	18.2 ± 2.3
sgRNA knockout: sgHSF2, 1000 nM	7.45 ± 1.1
sgRNA knockout: sgHSF2, 10000 nM	9.84 ± 4.1
sgRNA knockout: sgKEAP1, 10 nM	27.7 ± 6.5
sgRNA knockout: sgKEAP1, 100 nM	15.3 ± 0.39
sgRNA knockout: sgKEAP1, 1000 nM	10.7 ± 3.6
sgRNA knockout: sgKEAP1, 10000 nM	7.42 ± 3.6
sgRNA knockout: sgNFE2L2, 10 nM	30 ± 3.4
sgRNA knockout: sgNFE2L2, 100 nM	15.8 ± 6.1
sgRNA knockout: sgNFE2L2, 1000 nM	9.24 ± 2.3
sgRNA knockout: sgNFE2L2, 10000 nM	7.31 ± 1.9
sgRNA knockout: sgSLC35F2, 10 nM	33 ± 9.4
sgRNA knockout: sgSLC35F2, 100 nM	11.4 ± 7.2
sgRNA knockout: sgSLC35F2, 1000 nM	6.64 ± 2.8
sgRNA knockout: sgSLC35F2, 10000 nM	9.69 ± 2.9
sgRNA knockout: sgXBP1, 10 nM	34.9 ± 4.7
sgRNA knockout: sgXBP1, 100 nM	21.1 ± 1.1
sgRNA knockout: sgXBP1, 1000 nM	6.17 ± 0.9
sgRNA knockout: sgXBP1, 10000 nM	7.76 ± 5.8

— the supplement of paper PMC7661543
